Values from PubChem BioAssay AID602196 (INSERM, 2012)
Purpose: 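Modifiers of cisplatin sensitivity in A549 cells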. Cell system: human A549 lung cancer cells. Reagents: siRNA pair against human genes. Duration: 48 h transfection before cisplatin; time from cisplatin to read-out not stated. Treatment: cisplatin at a dose killing half of control-siRNA cells; exact dose and duration not given. Detection: 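Cisplatin cell death as a shift from the 50% death seen with control siRNA; siRNAs toxic or growth-blocking alone scored 0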. Scale: two-siRNA summed score (-2 to +2): higher = both siRNAs protect from cisplatin killing; -2 means both sensitise. Active means: 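siRNAs harmful alone (LDH or WST-1) get 0; others get +1 for less and -1 for more cisplatin killing; genes are active when the two siRNAs give the same sign, summing to ±2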. Calls: active = both siRNAs shift cisplatin killing the same way; inactive = no consistent shift, or siRNA harmful alone.
Here is a random part of about 23,000 reagents tested. 455 of them (2%) were called active. 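Active includes both protection and sensitisation; some change values fall well beyond the stated -50 to +50 range.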 The numbers tell different reagents against one gene apart. Further read-outs or replicates are left out here. Reagent sequences are not shown. Not given: the amount of reagent.

gene symbol | reagent no. | two-siRNA summed score (-2 to +2) | Outcome
MTHFSD | 1 | -1 | inactive
COPZ1 | 1 | 0 | inactive
GAS2L1P2 | 1 | 0 | inactive
IRF3 | 1 | 0 | inactive
CNOT8 | 1 | -1 | inactive
LOC440438 | 1 | 0 | inactive
KLHDC1 | 1 | 0 | inactive
CCL13 | 1 | 0 | inactive
LOC442710 (retired record) | 1 | 1 | inactive
TAS2R3 | 1 | -1 | inactive
RABL2B | 1 | 0 | inactive
FKBP10 | 1 | 0 | inactive
OR1E1 | 1 | 0 | inactive
LOC390488 | 1 | 1 | inactive
HMGN2 | 1 | 0 | inactive
GALNT9 | 1 | 0 | inactive
LOC344709 | 1 | 1 | inactive
PRXL2C | 1 | 0 | inactive
E2F2 | 1 | 0 | inactive
LOC441111 | 1 | -1 | inactive
HTR1A | 1 | 0 | inactive
LOC387715 | 1 | 0 | inactive
XAB2 | 1 | 0 | inactive
BOLL | 1 | 0 | inactive
LCE1E | 1 | 0 | inactive
TMEM100 | 1 | 0 | inactive
LOC440767 | 1 | 1 | inactive
CCDC116 | 1 | 0 | inactive
LOC440380 | 1 | 1 | inactive
DYRK3 | 1 | 0 | inactive
LOC388204 | 1 | 0 | inactive
CAMK2A | 1 | 0 | inactive
NUAK2 | 1 | 2 | active
LOC389642 | 1 | 0 | inactive
LOC442435 | 1 | 0 | inactive
HR | 1 | 0 | inactive
ARPP19 | 1 | 0 | inactive
DGKD | 1 | 1 | inactive
KRTAP5-9 | 1 | 0 | inactive
DAPP1 | 1 | 0 | inactive
LOC441381 | 1 | 0 | inactive
NOL4L-DT | 1 | 0 | inactive
ABCB9 | 1 | -1 | inactive
PPP3CA | 1 | 0 | inactive
LOC440676 | 1 | 1 | inactive
MKRN1 | 1 | 0 | inactive
LOC152118 | 1 | 0 | inactive
PPP1CB | 1 | 0 | inactive
PCDHA4 | 1 | 0 | inactive
CLIC4P3 | 1 | 0 | inactive
OR5B12 | 1 | 0 | inactive
CCDC89 | 1 | 0 | inactive
NCAM2 | 1 | 0 | inactive
TMEM254 | 1 | 0 | inactive
LOC390985 | 1 | 1 | inactive
PICALM | 1 | 0 | inactive
GUSBP14 | 1 | 0 | inactive
GUSBP14 | 2 | 1 | inactive
PAXX | 1 | 0 | inactive
DAB2IP | 1 | 0 | inactive
PSKH1 | 1 | 0 | inactive
LOC400951 | 1 | 0 | inactive
SPSB3 | 1 | 2 | active
ADH1C | 1 | -1 | inactive
PLA2G12A | 1 | -1 | inactive
MRPL15 | 1 | 0 | inactive
SLC2A1 | 1 | 1 | inactive
ANKRD30B | 1 | 0 | inactive
AMPH | 1 | 0 | inactive
PRR34 | 1 | 0 | inactive
AIFM1 | 1 | 0 | inactive
KLF12 | 1 | 0 | inactive
DCHS1 | 1 | 0 | inactive

6 entries from above, set out differently:
gene symbol	reagent no.	two-siRNA summed score (-2 to +2)	Outcome
PSKH1	1	0	inactive
LOC400951	1	0	inactive
SPSB3	1	2	active
ADH1C	1	-1	inactive
PLA2G12A	1	-1	inactive
MRPL15	1	0	inactive
